This is an account of results in the supplement of paper PMC7024190.

Where a name gives a salt, the structure may show the parent alone. This is one part of the list. Repeats in this data set agree poorly, so a single value says little.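 Human embryonic kidney cells were transiently transfected with a plasmid bearing a Renilla luciferase gene under the HSV-TK promoter. This first-round screen tests roughly ten thousand compounds for ones that increase reporter output.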

The test system of the assay is HEK 293FT. Briefly: log relative Renilla luciferase luminescence (reporter expression vs reference, reference not stated) (log (base not stated)); higher = higher recombinant reporter expression. Particulars: 10 µM; time after transfection 48 h.
As to `CS(=O)(=O)c1ccc(-c2cc(Br)sc2-c2ccc(F)cc2)cc1`, the log is -0.614. As for `CN(C)CCCC1(c2ccc(F)cc2)OCc2cc(C#N)ccc21` (stereo not drawn) [Citalopram hydrobromide], the log is 0.024. Consider `CCN(CC)CC1CCCCN1CC(=O)N1c2ccccc2C(=O)Nc2cccnc21` (stereo not drawn), for which the log was 0.035. To `Nc1nc2ccc(Cl)cc2c2nc(-c3ccco3)nn12` belongs 0.113; to `Cc1sc(N)c(C(=O)c2cccc(C(F)(F)F)c2)c1C`, -0.089; to `CCN1CCCC1CNC(=O)c1cc(S(=O)(=O)CC)c(N)cc1OC` (stereo not drawn) [Amisulpride], 0.027. For `OCc1cc(C(O)CNCCCCCCOCCCCc2ccccc2)ccc1O` (stereo not drawn) [Salmeterol], the log came out at 0.158. With `CN1CCc2cc(Cl)c(O)cc2[C@@H](c2ccccc2)C1`, the log came out at 0.0168.
